Data on 1 molecule can be found in publication PMC11884936, “MDC1 mediates Pellino recruitment to sites of DNA double-strand breaks” (Life Science Alliance, 2025).

The experiment has as its target T1, MDC1-[p]T699 biotinylated phosphopeptide (Biotin-SGS-…[p]TQCFLE-NH2) (human).
T1 sequence (peptide, biotin on the N-terminus; phosphothreonine at T699; C-terminal amide): SGSDSEDLDLQATQCFLE
The experiment in a line: pull-down; biotinylated peptide on streptavidin Dynabeads, incubated with HeLa nuclear extract 4 h at 4°C; SDS-PAGE and Western blot; only the target purified.

These are yes or no findings as the source states them, for the method shown. Binding seen in cells or lysates may run through a third protein. Some entries that bind do so weakly or less than the wild type.

B1: RNF8 (endogenous, HeLa nuclear extract) (protein, UniProt O76064 1-485)
chain: MGEPGFFVTGDRAGGRSWCLRRVGMSAGWLLLEDGCEVTVGRGFGVTYQLVSKICPLMISRNHCVLKQNPEGQWTIMDNKSLNGVWLNRARLEPLRVYSIHQGDYIQLGVPLENKENAEYEYEVTEEDWETIYPCLSPKNDQMIEKNKELRTKRKFSLDELAGPGAEGPSNLKSKINKVSCESGQPVKSQGKGEVASTPSDNLDPKLTALEPSKTTGAPIYPGFPKVTEVHHEQKASNSSASQRSLQMFKVTMSRILRLKIQMQEKHEAVMNVKKQTQKGNSKKVVQMEQELQDLQSQLCAEQAQQQARVEQLEKTFQEEEQHLQGLEIAQGEKDLKQQLAQALQEHWALMEELNRSKKDFEAIIQAKNKELEQTKEEKEKMQAQKEEVLSHMNDVLENELQCIICSEYFIEAVTLNCAHSFCSYCINEWMKRKIECPICRKDIKSKTYSLVLDNCINKMVNNLSSEVKERRIVLIRERKAKRLF
Consider B1, for which the binding result is reported as “binds”.
